Laboratory results from the supplement of paper PMC10849652.
The other results are listed elsewhere or left out.

Protein sequences, listed by entry. Tags and fused reporters are not part of them. Lines headed by an entry give the natural chain unless they say otherwise; changes in a name come on top.
UniProt Q9H8M7: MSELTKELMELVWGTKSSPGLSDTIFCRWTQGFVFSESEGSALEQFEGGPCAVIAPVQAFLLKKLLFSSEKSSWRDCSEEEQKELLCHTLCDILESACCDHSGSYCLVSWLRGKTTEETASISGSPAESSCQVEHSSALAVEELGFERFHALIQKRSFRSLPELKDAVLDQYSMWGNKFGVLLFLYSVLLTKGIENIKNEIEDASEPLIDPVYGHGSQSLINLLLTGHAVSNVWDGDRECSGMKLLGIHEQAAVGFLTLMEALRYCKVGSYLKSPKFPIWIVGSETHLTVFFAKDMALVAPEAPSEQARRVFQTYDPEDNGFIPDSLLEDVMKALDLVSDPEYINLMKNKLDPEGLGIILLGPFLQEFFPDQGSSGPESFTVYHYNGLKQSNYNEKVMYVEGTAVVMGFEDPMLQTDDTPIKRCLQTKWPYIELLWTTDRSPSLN
UniProt O95563: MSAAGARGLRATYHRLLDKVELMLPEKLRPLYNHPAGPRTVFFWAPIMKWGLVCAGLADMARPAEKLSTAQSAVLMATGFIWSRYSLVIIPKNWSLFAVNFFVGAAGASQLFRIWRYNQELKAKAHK
UniProt P51948: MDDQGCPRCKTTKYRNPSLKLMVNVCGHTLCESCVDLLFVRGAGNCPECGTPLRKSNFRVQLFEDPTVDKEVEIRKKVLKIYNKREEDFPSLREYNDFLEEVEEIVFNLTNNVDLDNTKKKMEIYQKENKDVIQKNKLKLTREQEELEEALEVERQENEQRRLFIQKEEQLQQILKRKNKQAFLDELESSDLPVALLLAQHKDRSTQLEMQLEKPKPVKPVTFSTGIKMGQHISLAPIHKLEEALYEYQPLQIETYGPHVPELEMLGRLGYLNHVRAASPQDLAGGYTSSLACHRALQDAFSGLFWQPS
UniProt Q9BV20: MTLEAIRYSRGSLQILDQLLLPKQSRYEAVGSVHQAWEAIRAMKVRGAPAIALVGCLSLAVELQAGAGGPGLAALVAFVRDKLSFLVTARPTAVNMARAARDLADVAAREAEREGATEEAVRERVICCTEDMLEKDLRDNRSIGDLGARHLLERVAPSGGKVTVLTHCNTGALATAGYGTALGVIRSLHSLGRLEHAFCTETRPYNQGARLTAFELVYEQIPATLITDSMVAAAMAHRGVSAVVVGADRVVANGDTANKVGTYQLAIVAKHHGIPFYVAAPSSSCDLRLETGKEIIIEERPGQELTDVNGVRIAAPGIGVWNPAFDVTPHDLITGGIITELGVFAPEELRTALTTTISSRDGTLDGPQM
UniProt Q8IYU8: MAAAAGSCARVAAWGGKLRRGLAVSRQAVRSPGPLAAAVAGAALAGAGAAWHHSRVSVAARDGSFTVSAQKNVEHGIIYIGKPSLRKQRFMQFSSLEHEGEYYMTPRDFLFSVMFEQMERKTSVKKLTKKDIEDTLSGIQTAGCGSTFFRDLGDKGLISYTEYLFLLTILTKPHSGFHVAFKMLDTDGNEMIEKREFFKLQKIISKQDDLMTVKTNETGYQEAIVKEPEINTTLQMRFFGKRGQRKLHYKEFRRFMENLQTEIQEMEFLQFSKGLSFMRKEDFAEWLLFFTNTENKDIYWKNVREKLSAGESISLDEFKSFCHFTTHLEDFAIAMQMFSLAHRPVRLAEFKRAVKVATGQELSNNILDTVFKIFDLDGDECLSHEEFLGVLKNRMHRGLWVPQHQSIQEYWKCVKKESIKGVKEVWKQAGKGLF
UniProt Q7L1V2: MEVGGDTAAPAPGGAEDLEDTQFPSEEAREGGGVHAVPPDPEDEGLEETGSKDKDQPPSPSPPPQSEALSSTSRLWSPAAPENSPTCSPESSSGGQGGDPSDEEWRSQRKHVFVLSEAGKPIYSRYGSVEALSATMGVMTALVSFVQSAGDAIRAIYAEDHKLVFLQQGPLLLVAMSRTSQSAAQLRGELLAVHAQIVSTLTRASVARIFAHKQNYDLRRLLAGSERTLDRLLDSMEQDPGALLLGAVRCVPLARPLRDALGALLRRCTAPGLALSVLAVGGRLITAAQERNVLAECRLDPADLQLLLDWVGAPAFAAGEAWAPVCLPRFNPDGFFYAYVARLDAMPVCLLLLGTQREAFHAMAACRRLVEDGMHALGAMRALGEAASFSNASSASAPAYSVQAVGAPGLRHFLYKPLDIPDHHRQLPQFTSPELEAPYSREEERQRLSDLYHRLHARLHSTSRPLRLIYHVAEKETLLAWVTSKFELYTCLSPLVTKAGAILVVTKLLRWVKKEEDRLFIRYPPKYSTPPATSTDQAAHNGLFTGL
UniProt O95297: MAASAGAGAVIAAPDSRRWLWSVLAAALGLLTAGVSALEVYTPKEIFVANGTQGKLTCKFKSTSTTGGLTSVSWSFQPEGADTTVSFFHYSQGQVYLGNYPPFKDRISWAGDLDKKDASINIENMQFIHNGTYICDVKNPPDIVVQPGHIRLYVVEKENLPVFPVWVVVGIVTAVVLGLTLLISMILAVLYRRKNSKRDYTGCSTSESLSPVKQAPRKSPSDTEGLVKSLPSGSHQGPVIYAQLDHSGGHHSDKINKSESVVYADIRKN
UniProt Q8N108: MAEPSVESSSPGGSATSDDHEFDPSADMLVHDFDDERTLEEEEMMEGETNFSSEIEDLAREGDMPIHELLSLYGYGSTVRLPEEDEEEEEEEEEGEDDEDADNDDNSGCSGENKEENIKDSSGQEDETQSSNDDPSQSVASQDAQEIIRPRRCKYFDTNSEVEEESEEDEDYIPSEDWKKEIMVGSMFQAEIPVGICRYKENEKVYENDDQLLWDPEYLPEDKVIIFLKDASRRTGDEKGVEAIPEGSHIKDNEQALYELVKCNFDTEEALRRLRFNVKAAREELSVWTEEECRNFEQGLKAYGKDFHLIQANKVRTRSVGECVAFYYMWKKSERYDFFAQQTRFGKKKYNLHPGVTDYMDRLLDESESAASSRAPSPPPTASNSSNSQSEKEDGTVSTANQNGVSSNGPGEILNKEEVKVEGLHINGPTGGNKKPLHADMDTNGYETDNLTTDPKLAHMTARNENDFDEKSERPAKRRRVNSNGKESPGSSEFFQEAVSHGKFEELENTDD

Columns and labels:
Assay in all cases: log2 fold change, soluble protein after heating vs DMSO (PISA); higher = thermal stabilisation; K562 cells, 10 uM, 30 min; active = over 0.2 and 3.5 SD of the protein, either way, in both replicates (recomputed)
bafetinib = compound: Cc1ccc(NC(=O)c2ccc(CN3CC[C@H](N(C)C)C3)c(C(F)(F)F)c2)cc1Nc1nccc(-c2cncnc2)n1 [bafetinib]
Outline: (§1)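 For each measurement, 10 μM compound was applied for 30 min to K562 cells at 2×10^6 cells/mL. Aliquots were heated for 3 min across 48°C-58°C, pooled, and extracted in PBS with 0.5% NP-40 at 4°C; the supernatant after 21,000xg for 90 min was soluble protein. This was quantified by TMTpro 16plex LC-MS/MS with channel sums equalised, and thermal stability was reported relative to control samples from duplicates, on a log2 fold-change scale.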

[1] = compound: Cc1cccc(CC(=O)N2CCc3c2ccc(-c2cn(C)c4ncnc(N)c24)c3F)n1
Outline: as §1

nilotinib = compound: Cc1cn(-c2cc(NC(=O)c3ccc(C)c(Nc4nccc(-c5cccnc5)n4)c3)cc(C(F)(F)F)c2)cn1 [nilotinib]
Outline: as §1

[2] = compound: Cc1nc(Nc2n[nH]c3c2CN(C(=O)N[C@H](CN(C)C)c2ccccc2)C3(C)C)c2sccc2n1
Outline: as §1

dasatinib = compound: Cc1nc(Nc2ncc(C(=O)Nc3c(C)cccc3Cl)s2)cc(N2CCN(CCO)CC2)n1 [dasatinib]
Outline: as §1

[3] = compound: Cc1ncc(-c2ccnc(Nc3ccc(S(C)(=O)=O)cc3)n2)n1C(C)C
Outline: as §1

[4] = compound: Cn1cc(-c2ccc3c(c2)CCN3C(=O)Cc2cccc(C(F)(F)F)c2)c2c(N)ncnc21
Outline: as §1

[5] = compound: Cn1cc(-c2ccc3nnc(C(F)(F)c4ccc5ncccc5c4)n3n2)cn1
Outline: as §1

tipifarnib = compound: Cn1cncc1[C@@](N)(c1ccc(Cl)cc1)c1ccc2c(c1)c(-c1cccc(Cl)c1)cc(=O)n2C [tipifarnib]
Outline: as §1

mubritinib = compound: FC(F)(F)c1ccc(/C=C/c2nc(COc3ccc(CCCCn4ccnn4)cc3)co2)cc1 [mubritinib]
Outline: as §1

[6] = compound: NC(=O)Nc1cc(-c2cccc(F)c2)sc1C(=O)N[C@H]1CCCNC1
Outline: as §1

[7] = compound: NC(=O)c1cnc(N[C@@H]2CCCC[C@@H]2N)nc1Nc1cccc(-n2nccn2)c1
Outline: as §1

[8] = compound: NC1(c2ccc(-c3nc4ccn5c(=O)[nH]nc5c4cc3-c3ccccc3)cc2)CCC1
Outline: as §1

[9] = compound: NCC(=O)Nc1ccc(-n2nc(C(F)(F)F)cc2-c2ccc3c(ccc4ccccc43)c2)cc1
Outline: as §1

entinostat = compound: Nc1ccccc1NC(=O)c1ccc(CNC(=O)OCc2cccnc2)cc1 [entinostat]
Outline: as §1

vorinostat = compound: O=C(CCCCCCC(=O)Nc1ccccc1)NO [vorinostat]
Outline: as §1

citarinostat = compound: O=C(CCCCCCNC(=O)c1cnc(N(c2ccccc2)c2ccccc2Cl)nc1)NO [citarinostat]
Outline: as §1

silmitasertib = compound: O=C(O)c1ccc2c(c1)nc(Nc1cccc(Cl)c1)c1ccncc12 [silmitasertib]
Outline: as §1

[10] = compound: O=C1NC(=O)C(c2cnc3ccccn23)=C1c1cn2c3c(cc(F)cc13)CN(C(=O)N1CCCCC1)CC2
Outline: as §1

[11] = compound: c1cc(OCCN2CCCCC2)cc(-c2n[nH]c3ccc(-c4nnc[nH]4)cc23)c1
Outline: as §1

Measured: log2 fold change

MRPL24 (UniProt Q96A35)
inactive: bafetinib 0.386 | [1] 0.039 | nilotinib -0.093 | [2] 0.151 | dasatinib -0.039 | [3] 0 | [4] -0.114 | [5] -0.044 | tipifarnib 0.082 | mubritinib 0.069 | [6] -0.04 | [7] 0.038 | [8] 0.022 | [9] 0.188 | entinostat -0.027 | vorinostat 0.064 | citarinostat -0.055 | silmitasertib -0.049 | [10] -0.01 | [11] -0.069

MRPL51 (UniProt Q4U2R6)
inactive: bafetinib 0.234 | [1] -0.078 | nilotinib -0.161 | [2] 0.113 | dasatinib 0.018 | [3] 0.017 | [4] -0.062 | [5] -0.076 | tipifarnib 0.112 | mubritinib 0.015 | [6] 0.003 | [7] -0.047 | [8] 0.085 | [9] 0.088 | entinostat -0.045 | vorinostat 0.003 | citarinostat -0.025 | silmitasertib -0.005 | [10] -0.008 | [11] -0.17

MINDY3 (UniProt Q9H8M7)
inactive: bafetinib -0.028 | [1] -0.042 | nilotinib -0.019 | [2] -0.017 | dasatinib -0.137 | [3] -0.078 | [4] 0.037 | [5] 0.052 | tipifarnib -0.044 | mubritinib 0.001 | [6] -0.029 | [7] -0.135 | [8] -0.061 | [9] -0.076 | entinostat 0.018 | vorinostat 0.033 | citarinostat 0.066 | silmitasertib -0.062 | [10] -0.124 | [11] -0.048

MRPL23 (UniProt Q16540)
inactive: bafetinib 0.19 | [1] -0.026 | nilotinib -0.12 | [2] 0.183 | dasatinib 0.041 | [3] -0.009 | [4] -0.164 | [5] -0.039 | tipifarnib 0.202 | mubritinib 0.093 | [6] -0.013 | [7] 0.08 | [8] 0.069 | [9] 0.066 | entinostat 0.047 | vorinostat 0.061 | citarinostat 0.002 | silmitasertib -0.054 | [10] 0.025 | [11] -0.063

MPC2 (UniProt O95563)
inactive: bafetinib -0.03 | [1] -0.004 | nilotinib -0.003 | [2] 0.008 | dasatinib 0.011 | [3] -0.024 | [4] 0.005 | [5] 0.055 | tipifarnib 0.006 | mubritinib 0.035 | [6] 0.001 | [7] -0.012 | [8] -0.034 | [9] -0.016 | entinostat -0.018 | vorinostat 0.024 | citarinostat 0.026 | silmitasertib 0.009 | [10] 0.006 | [11] -0.065

MNAT1 (UniProt P51948)
inactive: bafetinib -0.072 | [1] 0.011 | nilotinib -0.033 | [2] 0.023 | dasatinib -0.002 | [3] -0.031 | [4] 0.018 | [5] 0 | tipifarnib 0.025 | mubritinib 0.032 | [6] -0.055 | [7] -0.039 | [8] 0.005 | [9] -0.058 | entinostat -0.028 | vorinostat -0.003 | citarinostat 0.078 | silmitasertib -0.015 | [10] -0.047 | [11] -0.036

MRI1 (UniProt Q9BV20)
inactive: bafetinib -0.007 | [1] -0.057 | nilotinib 0.043 | [2] 0.002 | dasatinib -0.016 | [3] 0 | [4] 0.036 | [5] 0.014 | tipifarnib -0.027 | mubritinib 0.031 | [6] -0.018 | [7] -0.024 | [8] -0.021 | [9] -0.062 | entinostat 0 | vorinostat -0.045 | citarinostat 0.012 | silmitasertib 0.032 | [10] -0.033 | [11] 0.006

MICU2 (UniProt Q8IYU8)
inactive: bafetinib -0.142 | [1] 0.092 | nilotinib -0.052 | [2] -0.067 | dasatinib -0.102 | [3] -0.001 | [4] -0.022 | [5] -0.05 | tipifarnib 0.022 | mubritinib -0.155 | [6] -0.095 | [7] -0.075 | [8] -0.121 | [9] -0.006 | entinostat -0.014 | vorinostat 0.073 | citarinostat 0.042 | silmitasertib 0.076 | [10] 0.04 | [11] -0.141

MRPL32 (UniProt Q9BYC8)
inactive: bafetinib -0.01 | [1] -0.089 | nilotinib 0.073 | [2] 0.071 | dasatinib 0.152 | [3] -0.016 | [4] -0.217 | [5] -0.071 | tipifarnib 0.157 | mubritinib -0.184 | [6] 0 | [7] 0.097 | [8] 0.189 | [9] 0.139 | entinostat -0.027 | vorinostat 0.035 | citarinostat -0.017 | silmitasertib 0.04 | [10] 0.001 | [11] -0.038

MRPL48 (UniProt Q96GC5)
inactive: bafetinib 0.221 | [1] 0.079 | nilotinib -0.22 | [2] 0.2 | dasatinib 0 | [3] 0.118 | [4] -0.068 | [5] -0.066 | tipifarnib -0.002 | mubritinib 0.041 | [6] -0.081 | [7] 0.07 | [8] 0.098 | [9] 0.04 | entinostat 0.012 | vorinostat 0.107 | citarinostat -0.007 | silmitasertib 0.014 | [10] 0.035 | [11] -0.109

Two records drawn at random from those above, as already listed:
MRI1 (UniProt Q9BV20)
inactive: bafetinib -0.007 | [1] -0.057 | nilotinib 0.043 | [2] 0.002 | dasatinib -0.016 | [3] 0 | [4] 0.036 | [5] 0.014 | tipifarnib -0.027 | mubritinib 0.031 | [6] -0.018 | [7] -0.024 | [8] -0.021 | [9] -0.062 | entinostat 0 | vorinostat -0.045 | citarinostat 0.012 | silmitasertib 0.032 | [10] -0.033 | [11] 0.006

MRPL32 (UniProt Q9BYC8)
inactive: bafetinib -0.01 | [1] -0.089 | nilotinib 0.073 | [2] 0.071 | dasatinib 0.152 | [3] -0.016 | [4] -0.217 | [5] -0.071 | tipifarnib 0.157 | mubritinib -0.184 | [6] 0 | [7] 0.097 | [8] 0.189 | [9] 0.139 | entinostat -0.027 | vorinostat 0.035 | citarinostat -0.017 | silmitasertib 0.04 | [10] 0.001 | [11] -0.038

More entries.

MRPL10 isoform 2 (UniProt Q7Z7H8)
inactive: bafetinib 0.158 | [1] 0.06 | nilotinib -0.021 | [2] 0.141 | dasatinib 0.025 | [3] 0.06 | [4] 0 | [5] 0.012 | tipifarnib 0.053 | mubritinib -0.103 | [6] -0.027 | [7] -0.042 | [8] -0.096 | [9] -0.009 | entinostat -0.021 | vorinostat 0.004 | citarinostat -0.121 | silmitasertib 0.058 | [10] 0.017 | [11] 0.019

MRPL37 (UniProt Q9BZE1)
inactive: bafetinib 0.226 | [1] 0.005 | nilotinib -0.099 | [2] 0.144 | dasatinib -0.011 | [3] 0.011 | [4] -0.136 | [5] -0.017 | tipifarnib 0.091 | mubritinib 0.065 | [6] -0.088 | [7] 0.041 | [8] -0.071 | [9] 0.033 | entinostat 0.047 | vorinostat 0.005 | citarinostat -0.016 | silmitasertib -0.025 | [10] 0.028 | [11] -0.077

MON1B (UniProt Q7L1V2)
active: [8] -0.312
inactive: bafetinib -0.071 | [1] 0.004 | nilotinib 0.025 | [2] 0.015 | dasatinib -0.099 | [3] -0.048 | [4] 0.038 | [5] 0.012 | tipifarnib -0.011 | mubritinib 0.065 | [6] 0.015 | [7] -0.045 | [9] -0.053 | entinostat -0.018 | vorinostat -0.001 | citarinostat 0.056 | silmitasertib 0.032 | [10] 0.052 | [11] -0.081

MRPL44 (UniProt Q9H9J2)
inactive: bafetinib 0.185 | [1] 0.064 | nilotinib 0 | [2] 0.201 | dasatinib 0.019 | [3] 0.036 | [4] -0.109 | [5] -0.032 | tipifarnib 0.109 | mubritinib 0.044 | [6] 0.056 | [7] 0.058 | [8] 0.025 | [9] 0.11 | entinostat 0.022 | vorinostat 0 | citarinostat 0.056 | silmitasertib 0.002 | [10] 0.007 | [11] -0.148

MPZL1 (UniProt O95297)
inactive: bafetinib -0.015 | [1] -0.094 | nilotinib 0.021 | [2] 0.008 | dasatinib 0.042 | [3] 0.015 | [4] 0.087 | [5] 0.015 | tipifarnib -0.007 | mubritinib 0.025 | [6] -0.061 | [7] 0.078 | [8] 0.043 | [9] 0.002 | entinostat -0.019 | vorinostat -0.03 | citarinostat 0 | silmitasertib -0.055 | [10] -0.022 | [11] 0.006

MIER1 isoform 12 (UniProt Q8N108)
active: entinostat 0.292 | vorinostat 0.28 | citarinostat 0.273
inactive: bafetinib -0.016 | [1] 0.031 | nilotinib 0.012 | [2] -0.083 | dasatinib -0.028 | [3] -0.061 | [4] 0.056 | [5] -0.041 | tipifarnib -0.004 | mubritinib 0.052 | [6] -0.026 | [7] -0.03 | [8] -0.074 | [9] -0.025 | silmitasertib -0.017 | [10] -0.066 | [11] -0.061
